Test results reported in paper PMC10868794.

Columns and labels:
MBP-ZmERF2 (Zea mays) [1] = assay: competition EMSA; settings: LightShift Chemiluminescent EMSA Kit binding buffer (composition, salt and pH not stated), 10 uL reaction, 20 fmol biotin probe, 25 C 30 min, 7% polyacrylamide gel, recombinant protein, protein details: MBP (N-terminal), label: none (unlabeled competitor)
MBP-ZmARF1 [2] = assay: competition EMSA; settings: LightShift Chemiluminescent EMSA Kit binding buffer (composition, salt and pH not stated), 10 uL reaction, 20 fmol biotin probe, 25 C 30 min, 7% polyacrylamide gel, recombinant protein, protein details: MBP (N-terminal), label: none (unlabeled competitor)
MBP-ZmERF2 (Zea mays) [3] = assay: EMSA; settings: LightShift Chemiluminescent EMSA Kit binding buffer (composition, salt and pH not stated), 10 uL reaction, 20 fmol biotin probe, 25 C 30 min, 7% polyacrylamide gel; recombinant protein; protein details: MBP (N-terminal); label: 5' biotin
MBP-ZmARF1 [4] = assay: EMSA; settings: LightShift Chemiluminescent EMSA Kit binding buffer (composition, salt and pH not stated), 10 uL reaction, 20 fmol biotin probe, 25 C 30 min, 7% polyacrylamide gel; recombinant protein; protein details: MBP (N-terminal); label: 5' biotin
MBP = MBP (UniProt P0AEX9); assay: EMSA; settings: tag-only control; LightShift Chemiluminescent EMSA Kit binding buffer (composition, salt and pH not stated), 10 uL reaction, 20 fmol biotin probe, 25 C 30 min, 7% polyacrylamide gel; recombinant protein; label: 5' biotin

“AGTAGAATAGTAATTGTGTTTTTCTCTAATATACTATAATTGTGAAATTTTCAAGCCACTAGTAATTGCTAGTTAATT (double strand) [ABRE mutant competitor (mu-pZmARF1)]”: no binding (MBP-ZmERF2 (Zea mays) [1]; mutant competitor against N4, no effect on shifted band).

“AGTAGAATAGTACGTGTGTTTTTCTCTAATATACTATACGTGTGAAATTTTCAAGCCACTAGTACGTGCTAGTTAATT (double strand) [ABRE unlabeled competitor]”: binds (MBP-ZmERF2 (Zea mays) [1]; increasing unlabeled competitor against N4).

“ACTGGGCCGGCATCATCCGGAACGCCACTGGGCCGGCATCATCCGGAACGCCACTGGGCCGGCATCATCCGGAACGCC (double strand) [GC-box mutant competitor (mu-pLBD1)]”: no binding (MBP-ZmARF1 [2]; mutant competitor against N1, no effect on shifted band).

“AGTAGAATAGTACGTGTGTTTTTCTCTAATATACTATACGTGTGAAATTTTCAAGCCACTAGTACGTGCTAGTTAATT (double strand) [Bio-pZmARF1 ABRE probe]”: binds (MBP-ZmERF2 (Zea mays) [3]).

“ACTGGGCCGGCCGCCGCCGGAACGCCACTGGGCCGGCCGCCGCCGGAACGCCACTGGGCCGGCCGCCGCCGGAACGCC (double strand) [GC-box unlabeled competitor]”: binds (MBP-ZmARF1 [2]; unlabeled competitor 5x to 50x against N1).

“ACTGGGCCGGCCGCCGCCGGAACGCCACTGGGCCGGCCGCCGCCGGAACGCCACTGGGCCGGCCGCCGCCGGAACGCC (double strand) [Bio-pLBD1 GC-box probe]”: binds (MBP-ZmARF1 [4]); no binding (MBP).

For some of these results: A negative result means that nothing was seen under these conditions. For some of these results: For at least one entry, the source does not settle the construct or the ends of the probe.
